Source: paper PMC3150357

Tests used:
[1] = target: T1, ISL1 (Islet 1, LIM-homeodomain) (UniProt P61372); test: competition with a labelled probe; conditions: 10 µg nuclear protein, 0.25 ng (20 kcpm) 32P duplex, 20 µl, 4°C, 6% native PAGE, buffer composition, salt and pH not stated, protein in an extract, label: none (unlabeled competitor)
T1 sequence (looked up, limits assumed): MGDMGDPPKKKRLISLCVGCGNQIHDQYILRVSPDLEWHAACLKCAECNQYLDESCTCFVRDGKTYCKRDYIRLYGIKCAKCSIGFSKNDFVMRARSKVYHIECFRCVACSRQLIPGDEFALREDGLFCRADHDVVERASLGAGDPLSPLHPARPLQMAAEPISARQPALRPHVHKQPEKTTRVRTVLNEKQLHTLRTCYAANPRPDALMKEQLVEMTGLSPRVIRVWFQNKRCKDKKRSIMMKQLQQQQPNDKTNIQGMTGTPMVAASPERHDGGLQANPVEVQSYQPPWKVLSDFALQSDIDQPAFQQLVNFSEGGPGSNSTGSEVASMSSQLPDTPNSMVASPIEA

[2] = target: T1, ISL1 (Islet 1, LIM-homeodomain); test: EMSA with anti-ISL1 antibody (complex attenuated); conditions: 10 µg nuclear protein, 0.25 ng (20 kcpm) 32P duplex, 20 µl, 4°C, 6% native PAGE; buffer composition, salt and pH not stated; protein in an extract; label: 32P

Q: Does “AATTTAATTTCTTTTTGCCGTAAAAAAAATGAGTC (double strand) [Mutant CyclinD1 probe]” bind ([1]; unlabeled competitor against labeled N3)?
A: Result: no binding

Q: Does “AATTTAATTTCTTTTTTAATTAAAAAAAATGAGTC (double strand) [Wild-type CyclinD1 probe]” bind [2]?
A: Result: binds

Q: Does “ATTAGAGTCGGCTTTGCCGTAGTTAACACACAC (double strand) [Mutant c-Myc probe]” bind ([1]; unlabeled competitor against labeled N1)?
A: Result: no binding

Q: Does “ATTAGAGTCGGCTTTTAATTAGTTAACACACAC (double strand) [Wild-type c-Myc probe]” bind [2]?
A: Result: binds

Construct, isoform or probe ends are uncertain for at least one entry. Results from cells or extracts need not show a direct contact. For some of these results: A negative result means that nothing was seen under these conditions. Tags and fusion partners may be left off the protein sequences shown.
